Values of other authors, collected in patent publication US20220241230A1, “DICLOFENAC SACHET COMPOSITION” (Patrin Pharma, Inc., priority 2021, published 2022).
At least one read-out could not be matched to a standard name with certainty.

Settings: commercially available sugar coated tablets

Structure (SMILES): O=C(O)Cc1ccccc1Nc1c(Cl)cccc1Cl [diclofenac potassium, Diclofenac potassium]
- time to average Cmax: about one
